Earlier results, collected in publication PMC6723713, “Purification, Characterization and Evaluation of Inhibitory Mechanism of ACE Inhibitory Peptides from Pearl Oyster (Pinctada fucata martensii) Meat Protein Hydrolysate” (Marine Drugs, 2019).
Where two headings read alike, the source gives them in different places. The match of structure and compound is tentative.

Chains of the proteins cited; added tags and fusions are not shown. Residues count along the entry.
UniProt P12822, 34-1310 limits assumed: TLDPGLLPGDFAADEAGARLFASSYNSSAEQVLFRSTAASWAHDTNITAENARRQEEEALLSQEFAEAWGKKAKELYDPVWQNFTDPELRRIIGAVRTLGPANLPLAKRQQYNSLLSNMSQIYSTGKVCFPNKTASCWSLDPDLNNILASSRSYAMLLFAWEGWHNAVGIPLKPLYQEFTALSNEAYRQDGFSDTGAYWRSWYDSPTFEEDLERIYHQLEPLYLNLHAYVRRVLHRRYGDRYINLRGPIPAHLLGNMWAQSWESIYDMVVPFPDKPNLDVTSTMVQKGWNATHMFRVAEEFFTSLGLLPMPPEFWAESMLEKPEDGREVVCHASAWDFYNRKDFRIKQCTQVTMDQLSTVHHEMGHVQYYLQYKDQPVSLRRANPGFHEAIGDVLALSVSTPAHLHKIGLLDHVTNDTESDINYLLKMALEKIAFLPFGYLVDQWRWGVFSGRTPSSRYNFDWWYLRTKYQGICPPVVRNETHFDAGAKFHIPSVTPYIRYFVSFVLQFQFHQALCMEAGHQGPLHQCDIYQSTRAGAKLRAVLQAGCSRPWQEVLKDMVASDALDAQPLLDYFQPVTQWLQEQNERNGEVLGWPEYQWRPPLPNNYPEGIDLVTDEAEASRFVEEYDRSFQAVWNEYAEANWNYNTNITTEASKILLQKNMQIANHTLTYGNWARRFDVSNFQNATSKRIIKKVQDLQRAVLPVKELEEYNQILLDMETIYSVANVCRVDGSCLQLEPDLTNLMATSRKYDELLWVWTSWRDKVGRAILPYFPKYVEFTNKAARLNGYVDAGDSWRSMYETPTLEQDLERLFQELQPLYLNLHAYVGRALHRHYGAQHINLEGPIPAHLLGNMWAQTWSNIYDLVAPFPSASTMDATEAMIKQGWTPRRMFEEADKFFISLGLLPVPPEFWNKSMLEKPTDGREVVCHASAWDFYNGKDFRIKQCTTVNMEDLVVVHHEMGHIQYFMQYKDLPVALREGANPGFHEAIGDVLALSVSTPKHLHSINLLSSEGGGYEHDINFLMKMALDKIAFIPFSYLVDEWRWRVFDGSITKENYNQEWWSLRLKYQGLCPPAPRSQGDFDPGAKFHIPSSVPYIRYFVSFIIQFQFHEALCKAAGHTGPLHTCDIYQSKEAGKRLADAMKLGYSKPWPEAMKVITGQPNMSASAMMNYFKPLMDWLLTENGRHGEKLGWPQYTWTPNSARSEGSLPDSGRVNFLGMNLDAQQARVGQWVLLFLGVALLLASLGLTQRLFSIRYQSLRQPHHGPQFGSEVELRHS

Target: ACE (Oryctolagus cuniculus, UniProt P12822)
Conditions: cited from earlier work
Source text: Table 2 Summary of ACE inhibitory peptides having similar structure with purified peptides. | column: IC50 (μM) || Table 3 Inhibition pattern of ACE inhibitory peptides derived from marine products. | column: Inhibition Pattern; IC50 (μM)

| SMILES | IC50 (ref [36]) [µM] | Inhibition Pattern (ref [36]) | IC50 (ref [28]) [µM] |
| --- | --- | --- | --- |
| CC(C)[C@H](N)C(=O)N[C@@H](CCCCN)C(=O)N[C@@H](CCCCN)C(=O)O | 1040 | Competitive |  |
| CC(C)[C@H](N)C(=O)N[C@@H](CCCCN)C(=O)N1CCC[C@H]1C(=O)O | 3.7 | Competitive |  |
| NCC(=O)N[C@@H](Cc1c[nH]c2ccccc12)C(=O)O |  |  | 30 |
| CC(C)C[C@H](NC(=O)[C@H](CC(C)C)NC(=O)[C@@H](N)Cc1c[nH]cn1)C(=O)O |  |  | 22.2 |
| CC[C@H](C)[C@H](N)C(=O)NCC(=O)N[C@@H](Cc1c[nH]c2ccccc12)C(=O)O |  |  | < 10 |
| C[C@H](N)C(=O)NCC(=O)N[C@@H](Cc1c[nH]c2ccccc12)C(=O)O |  |  | < 10 |
